Values from PubChem BioAssay AID1259331 (Drosophila RNAi Screening Center, 2017)
Shown is one part, drawn at random, of about 3,100 deposited reagents. 126 of all reagents (4.1%) were called active. 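Calls are per reagent; zinc was so toxic that few knock-downs lowered ATP further, so most hits raise ATP.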 The raw values are shown without normalisation. The numbers tell different reagents against one gene apart. The record does not give: the amount of reagent.

Screen: 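Knock-downs that alter ATP level after a high zinc chloride dose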 (primary screen)
System: Drosophila S2R+ cells
Reagent: long dsRNA against Drosophila genes
Duration: 5 days (4 days knock-down, then 1 day zinc)
Treatment: zinc chloride at 15 mM final level for 1 day
Measurement: 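Luminescent ATP assay standing in for viability; Z score is the mean over three replicate plates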
Scale: mean Z score: higher = more ATP than other wells, better survival under zinc; ATP luminescence: higher = more ATP, more viable cells
Hit rule: 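a reagent is called a hit when its Z score is above 1.5 or below -1.5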
Meaning of the calls: active = hit, ATP up or down; inactive = not a hit

| gene | reagent no. | mean Z score | ATP luminescence, replicate 1 | ATP luminescence, replicate 2 | Outcome |
| --- | --- | --- | --- | --- | --- |
| dy (dusky) | 1 | -0.48 | 55234 | 61009 | inactive |
| dy (dusky) | 2 | -0.117 | 54562 | 55728 | inactive |
| T48 (Transcript 48) | 1 | 0.336 | 70767 | 72500 | inactive |
| CG13907 | 1 | -0.625 | 26908 | 26068 | inactive |
| CG13907 | 2 | -0.181 | 58180 | 57700 | inactive |
| Osi23 (Osiris 23) | 1 | 0.319 | 75587 | 66994 | inactive |
| Tim23 (Translocase of inner mitochondrial membrane 23) | 1 | 3.39 | 63959 | 1.04e5 | active |
| mol (moladietz) | 1 | 1.52 | 61054 | 65417 | active |
| mol (moladietz) | 2 | 0.0845 | 56019 | 60306 | inactive |
| TrissinR (Trissin receptor) | 1 | -0.594 | 52024 | 52463 | inactive |
| TrissinR (Trissin receptor) | 2 | 0.456 | 65657 | 62776 | inactive |
| NAAT1 (Nutrient Amino Acid Transporter 1) | 1 | -0.661 | 52915 | 57313 | inactive |
| NAAT1 (Nutrient Amino Acid Transporter 1) | 2 | -0.612 | 45182 | 58866 | inactive |
| MFS1 (Major Facilitator Superfamily Transporter 1) | 1 | 0.573 | 60272 | 46280 | inactive |
| MFS1 (Major Facilitator Superfamily Transporter 1) | 2 | 0.439 | 65965 | 63016 | inactive |
| TM9SF4 (Transmembrane 9 superfamily protein member 4) | 1 | -0.339 | 48680 | 54368 | inactive |
| TM9SF4 (Transmembrane 9 superfamily protein member 4) | 2 | 0.254 | 66000 | 61972 | inactive |
| trp (transient receptor potential) | 1 | 0.42 | 73083 | 72946 | inactive |
| trp (transient receptor potential) | 2 | 3.55 | 1.16e5 | 1.14e5 | active |
| Ir76a (Ionotropic receptor 76a) | 1 | -1.04 | 23891 | 21829 | inactive |
| CG31760 | 1 | -0.607 | 41916 | 40201 | inactive |
| CG31760 | 2 | 0.43 | 48955 | 70990 | inactive |
| CG3603 | 1 | -0.565 | 57442 | 55916 | inactive |
| CG3603 | 2 | 1.13 | 71361 | 73042 | inactive |
| fusl (fuseless) | 1 | -0.512 | 46880 | 51233 | inactive |
| fusl (fuseless) | 2 | 0.883 | 70733 | 79360 | inactive |
| Tom7 (Translocase of outer membrane 7) | 1 | 0.0619 | 41771 | 45016 | inactive |
| Tom7 (Translocase of outer membrane 7) | 2 | -0.211 | 99085 | 67766 | inactive |
| Pex23 (Peroxin 23) | 1 | -0.356 | 27405 | 28279 | inactive |
| Pex23 (Peroxin 23) | 2 | 0.328 | 81590 | 67903 | inactive |
| Pex23 (Peroxin 23) | 3 | 0.1 | 75741 | 49898 | inactive |
| LpR1 (Lipophorin receptor 1) | 1 | 1.04 | 55676 | 65554 | inactive |
| LpR1 (Lipophorin receptor 1) | 2 | -0.224 | 35325 | 57919 | inactive |
| LpR1 (Lipophorin receptor 1) | 3 | 0.471 | 70081 | 63513 | inactive |
| CG7084 | 1 | 0.64 | 49795 | 55110 | inactive |
| CG7084 | 2 | -0.253 | 49949 | 55505 | inactive |
| CG7806 | 1 | -0.504 | 51989 | 46040 | inactive |
| CG7806 | 2 | -0.0577 | 53310 | 57631 | inactive |
| Oatp58Db (Organic anion transporting polypeptide 58Db) | 1 | 0.0152 | 66394 | 66205 | inactive |
| CG11601 | 1 | -0.259 | 42885 | 42405 | inactive |
| CG11601 | 2 | 0.0802 | 56311 | 60135 | inactive |
| mgl (Megalin) | 1 | -0.468 | 39302 | 38856 | inactive |
| mgl (Megalin) | 2 | -0.442 | 55162 | 62347 | inactive |
| Gr22c (Gustatory receptor 22c) | 1 | 0.0491 | 65471 | 58768 | inactive |
| SdhCL (Succinate dehydrogenase, subunit C-like) | 1 | 0.346 | 34330 | 62604 | inactive |
| SdhCL (Succinate dehydrogenase, subunit C-like) | 2 | -0.137 | 53841 | 61539 | inactive |
| CG7227 | 1 | 0.714 | 62604 | 70219 | inactive |
| CG7227 | 2 | -0.0187 | 51869 | 47309 | inactive |
| CG15408 | 1 | 0.0458 | 43279 | 49674 | inactive |
| CG15408 | 2 | -0.31 | 52795 | 58317 | inactive |

Called active (from the list above):
| gene | reagent no. | mean Z score | ATP luminescence, replicate 1 | ATP luminescence, replicate 2 | Outcome |
| --- | --- | --- | --- | --- | --- |
| Tim23 (Translocase of inner mitochondrial membrane 23) | 1 | 3.39 | 63959 | 1.04e5 | active |
| mol (moladietz) | 1 | 1.52 | 61054 | 65417 | active |
| trp (transient receptor potential) | 2 | 3.55 | 1.16e5 | 1.14e5 | active |

The list goes on.
| gene | reagent no. | mean Z score | ATP luminescence, replicate 1 | ATP luminescence, replicate 2 | Outcome |
| --- | --- | --- | --- | --- | --- |
| nAChRalpha6 (nicotinic Acetylcholine Receptor alpha6) | 1 | 0.0948 | 41448 | 46869 | inactive |
| nAChRalpha6 (nicotinic Acetylcholine Receptor alpha6) | 2 | -0.257 | 48566 | 56859 | inactive |
| Ir7c (Ionotropic receptor 7c) | 1 | -0.37 | 57117 | 62776 | inactive |
| Ir7c (Ionotropic receptor 7c) | 2 | -0.811 | 48663 | 49315 | inactive |
| Toll-6 | 1 | -0.0123 | 73752 | 62024 | inactive |
| Toll-6 | 2 | 0.161 | 59912 | 56984 | inactive |
| Hk (Hyperkinetic) | 1 | 0.254 | 63187 | 57048 | inactive |
| Hk (Hyperkinetic) | 2 | 0.0696 | 52641 | 46955 | inactive |
| InR (Insulin-like receptor) | 1 | -0.579 | 36353 | 53225 | inactive |
| InR (Insulin-like receptor) | 2 | -0.425 | 42525 | 38822 | inactive |
| InR (Insulin-like receptor) | 3 | -0.439 | 42388 | 43076 | inactive |
| ACXC (Adenylyl cyclase X C) | 1 | 0.468 | 61198 | 38764 | inactive |
| CG32301 | 1 | 0.267 | 78709 | 75055 | inactive |
| CG32301 | 2 | 0.111 | 65571 | 60275 | inactive |
| side-VIII (sidestep VIII) | 1 | 0.508 | 52036 | 54750 | inactive |
| side-VIII (sidestep VIII) | 2 | -0.0749 | 59380 | 61112 | inactive |
| mGluR (metabotropic Glutamate Receptor) | 1 | -0.712 | 57014 | 51407 | inactive |
| mGluR (metabotropic Glutamate Receptor) | 2 | -0.481 | 57974 | 51561 | inactive |
| Catsup (Catecholamines up) | 1 | -0.0638 | 53687 | 43039 | inactive |
| Catsup (Catecholamines up) | 2 | -0.467 | 43622 | 45988 | inactive |
| Scgdelta (Sarcoglycan delta) | 1 | -0.274 | 59569 | 63496 | inactive |
| fbl (fumble) | 1 | -0.273 | 67783 | 60649 | inactive |
| fbl (fumble) | 2 | 0.295 | 58369 | 78623 | inactive |
| CngB (Cyclic nucleotide-gated ion channel subunit B) | 1 | -0.381 | 25399 | 33284 | inactive |
| PGRP-SC1b (Peptidoglycan recognition protein SC1b) | 1 | -0.2 | 28776 | 29136 | inactive |
| CG30008 | 1 | -0.0882 | 45562 | 44271 | inactive |
| CG30008 | 2 | 2.42 | 1.45e5 | 59582 | active |
| CG14857 | 1 | -0.242 | 37416 | 55110 | inactive |
| CG14857 | 2 | 0.0764 | 60992 | 60032 | inactive |
| PIG-G (Phosphatidylinositol glycan anchor biosynthesis class G) | 1 | -0.341 | 31197 | 27335 | inactive |
| bw (brown) | 1 | -0.169 | 38487 | 40948 | inactive |
| bw (brown) | 2 | -0.0637 | 29222 | 33662 | inactive |
| CG5002 | 1 | -0.0423 | 28330 | 36850 | inactive |
| CG32432 | 1 | -0.157 | 75724 | 57494 | inactive |
| PMP34 (Peroxisomal Membrane Protein 34) | 1 | -0.0916 | 46263 | 45988 | inactive |
| PMP34 (Peroxisomal Membrane Protein 34) | 2 | -0.406 | 37005 | 51904 | inactive |
| CG5892 | 1 | 0.405 | 37585 | 66205 | inactive |
| CG5892 | 2 | -0.617 | 43348 | 46194 | inactive |
